# Screening data, single-dose tests

Protein sequences, listed by entry. Tags and fused reporters are not part of them. Residues count along the entry.
UniProt A4I591, 1-473: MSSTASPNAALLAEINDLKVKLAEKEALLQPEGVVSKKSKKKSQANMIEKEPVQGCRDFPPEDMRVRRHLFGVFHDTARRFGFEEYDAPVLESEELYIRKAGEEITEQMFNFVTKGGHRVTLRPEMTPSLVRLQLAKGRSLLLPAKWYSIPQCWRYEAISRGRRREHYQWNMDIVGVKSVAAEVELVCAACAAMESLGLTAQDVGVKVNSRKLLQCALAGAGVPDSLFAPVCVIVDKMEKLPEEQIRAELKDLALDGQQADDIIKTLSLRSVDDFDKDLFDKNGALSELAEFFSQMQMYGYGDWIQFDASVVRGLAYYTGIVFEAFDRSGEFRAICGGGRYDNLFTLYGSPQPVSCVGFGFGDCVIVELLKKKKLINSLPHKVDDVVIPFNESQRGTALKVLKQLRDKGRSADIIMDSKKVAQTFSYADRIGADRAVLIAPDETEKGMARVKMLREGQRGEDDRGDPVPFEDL

The values are deposited in ChEMBL (CHEMBL3988442, “University of Dundee, Small-Polar-MMV Screening Library” (2021)).

Results are given as percent effect.
How 0% and 100% were set is not recorded. Most values in the screen are low, and negative values occur.
The compounds are a random part of those screened.

Toxoplasma: 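Assay of Toxoplasma gondii numbers, read through their beta-galactosidase reporter with a colour substrate. Compounds at 10 µM. The record gives no direction; the compounds picked for IC50 retests had high values, so higher reads as fewer parasites. Of about 67,000 compounds tested this way, about 260 (0.38%) reached 50% or more in at least one test.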
LiHisRS: 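Histidine-tRNA ligase, Leishmania infantum (UniProt A4I591). Enzyme assay of histidyl-tRNA synthetase; the read-out is not stated. Compounds at 30 µM. Direction is inferred from retests: higher values go with stronger inhibition. The assay is labelled LdHisRS but filed under L. infantum. About 69,000 compounds were tested under these conditions; 0.6% (about 410) showed 50% or more at least once.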

SMILES: CC(=O)N1CCc2[nH]cnc2C1C1=CCCN(CCn2cccc2)C1 (centres unmarked)
Toxoplasma: -38.25
LiHisRS: 13.11

SMILES: CNC(=O)C1CCCN(C(=O)NCCC2Cc3ccccc3C2)C1 (centres unmarked)
Toxoplasma: 19.45
LiHisRS: 8.73

SMILES: CCC(CN1CCN(C)CC1)NC(=O)C1(c2cccc(F)c2)CC1 (centres unmarked)
LiHisRS: 2.817

SMILES: COc1ccc2c(c1)CN(C)C(=O)CCN2CC(O)C(F)(F)F (centres unmarked)
Toxoplasma: 0.7239
LiHisRS: 4.082

SMILES: O=C1CCCN1CCN1CCC(c2ccn[nH]2)CC1
Toxoplasma: 1.674
LiHisRS: 12.12

SMILES: CCN(CC)C(=O)[C@@H]1C[C@@H](NC(=O)c2cccc(N(C)C)c2)CN1C
Toxoplasma: -9.379
LiHisRS: -8.333

SMILES: CCNC(=O)[C@@H]1C[C@@H](N)CN1Cc1ccc2cccc(Cl)c2n1
Toxoplasma: -7.041
LiHisRS: 16

SMILES: Cc1ccc(Cl)cc1N1CCC(CNC(=O)Cn2cccn2)C1 (centres unmarked)
Toxoplasma: 0
LiHisRS: 8.333

SMILES: CC(C)(C)c1noc(CCCC(=O)N2CCCC(c3ccn[nH]3)C2)n1 (centres unmarked)
Toxoplasma: 3.202
LiHisRS: 0

SMILES: Cc1cnc(C)c(-c2cc(O)c3c(c2)CN(c2nccs2)CCO3)n1
Toxoplasma: 3.577
LiHisRS: 15.83

SMILES: COC(=O)c1ccc(-c2noc(CN(CCO)Cc3cccs3)n2)cc1
Toxoplasma: -0.8811
LiHisRS: 12.09

SMILES: [H][C@@]12CC[C@H](Oc3ccccc3)[C@]1([H])CN(C(=O)CN(C)C)C2
Toxoplasma: 5.4

SMILES: CO[C@@H]1CCN(Cc2nccs2)C[C@@H]1Cc1cccc(C)c1.O=C(O)C(F)(F)F
Toxoplasma: -2.767

SMILES: COCCNC(=O)[C@H]1C[C@@H]2CCN(Cc3nccs3)C[C@H]2O1
LiHisRS: 20.59

SMILES: COc1c(Br)c(CC2CC(CO)=NO2)c(OC)c2c1OCO2 (centres unmarked)
Toxoplasma: 18.12
LiHisRS: 8.642

SMILES: Cc1cccc(CN2CCC3(CCCN(C(=O)N(C)C)C3)C2=O)n1.O=C(O)C(F)(F)F (centres unmarked)
Toxoplasma: 1.58

SMILES: Cc1cc(C[C@@H]2COC[C@@H]2NC(=O)CNC(=O)N(C)C)on1
Toxoplasma: 5.014
LiHisRS: -4.301

SMILES: CS(=O)(=O)NCCNCc1ccc(Br)s1
LiHisRS: 12.05

SMILES: CC(=O)N1CCC(c2nccnc2C)CC1
Toxoplasma: 4.403
LiHisRS: 10.14

SMILES: CCN(CC)CCn1cc(NC(=O)c2ccccc2OC)cn1
Toxoplasma: 1.467
LiHisRS: 6.667

SMILES: CCc1ccc(CN2CCc3ncnc(N4CCOCC4)c3CC2)o1.O=C(O)C(F)(F)F
Toxoplasma: -7.307

SMILES: Cc1cccc(N2CCC3(CCCN3Cc3cn(C)nc3C)CC2)n1
Toxoplasma: 5.196
LiHisRS: -5.479

SMILES: CCc1nc2ccccc2n1C(CC)C(=O)N(C)CCc1noc(C)n1 (centres unmarked)
Toxoplasma: 5.268
LiHisRS: -36.59

SMILES: COc1ccc(NC(C)C(=O)NCCc2cccs2)cc1F (centres unmarked)
Toxoplasma: -9.195
LiHisRS: 7.692

SMILES: COc1ccnc(CN2CCC(O)(c3ccc(C)cn3)CC2)c1OC
Toxoplasma: 5.215
LiHisRS: 27.63

SMILES: CC(C)CCN1C2(CCN(C(=O)CN(C)C)C2)c2ccccc2S1(=O)=O (centres unmarked)
LiHisRS: 2.778

SMILES: c1cc(-c2nc3c(c(NCCc4c[nH]cn4)n2)CCNCC3)ccn1
Toxoplasma: -11.46
LiHisRS: -9.211

SMILES: CNc1cncc(C2CCCN2Cc2ccnc(C)n2)n1 (centres unmarked)
Toxoplasma: -2.787
LiHisRS: -4.348

SMILES: Cn1nc(C2CCCN(Cc3ccsc3)C2)c2nccnc21 (centres unmarked)
Toxoplasma: 3.523
LiHisRS: 13.89

SMILES: [O-][S+](CCN1CCc2[nH]nc(C(F)(F)F)c2C1)c1ccccc1 (centres unmarked)
Toxoplasma: -0.12
LiHisRS: 10.53

SMILES: COC(=O)C1CN(CC(=O)Nc2cc(F)ccc2F)c2ccccc21 (centres unmarked)
Toxoplasma: -3.139
LiHisRS: -18.75

SMILES: Cc1cc2nc(SCC(=O)N3CCCC3)n(Cc3ccco3)c(O)c-2n1
Toxoplasma: -0.09153
LiHisRS: 28.4

2 of the entries, repeated:

With COc1ccc2c(c1)CN(C)C(=O)CCN2CC(O)C(F)(F)F (centres unmarked) the screen gave Toxoplasma: 0.7239%; LiHisRS: 4.082%.
With Cc1cccc(CN2CCC3(CCCN(C(=O)N(C)C)C3)C2=O)n1.O=C(O)C(F)(F)F (centres unmarked) the screen gave Toxoplasma: 1.58%.